The exact form of at least one protein or probe is not confirmed. Where cells or extracts were used, other partners may take part. A weaker result is weaker than the reference pair of the same experiment. Tags and fusion partners may be left off the protein sequences shown.

The data set concerns the target T1, MEF2D-Flag (UniProt Q03413).
T1 sequence (looked up, limits assumed): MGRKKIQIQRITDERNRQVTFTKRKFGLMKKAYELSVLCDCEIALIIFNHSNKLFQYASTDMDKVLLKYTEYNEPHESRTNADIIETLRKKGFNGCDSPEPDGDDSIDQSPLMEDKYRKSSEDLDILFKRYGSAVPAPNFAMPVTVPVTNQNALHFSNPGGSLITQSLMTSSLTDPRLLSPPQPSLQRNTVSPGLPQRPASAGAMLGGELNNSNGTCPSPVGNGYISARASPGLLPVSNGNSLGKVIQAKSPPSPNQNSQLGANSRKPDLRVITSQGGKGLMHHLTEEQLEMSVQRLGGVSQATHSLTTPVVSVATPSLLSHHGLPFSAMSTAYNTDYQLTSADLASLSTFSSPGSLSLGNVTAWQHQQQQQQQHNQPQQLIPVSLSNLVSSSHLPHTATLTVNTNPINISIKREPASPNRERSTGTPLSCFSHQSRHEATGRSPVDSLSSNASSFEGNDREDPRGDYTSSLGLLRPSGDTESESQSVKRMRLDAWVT
Put plainly: EMSA. The conditions noted are these: 10 mM HEPES pH 7.9, 50 mM KCl, 2 mM MgCl2, 0.1 mM EDTA, 2 mM spermidine, 10% glycerol, 0.1 mg/ml BSA, 0.02% NP-40, 500 ng poly(dI-dC), 20 ug extract, ~1 ng probe; protein in a lysate after overexpression; label: 32P-dCTP (Klenow fill-in).
“GCTCACTCCTATATAAAGTCAGGG (double strand) [PE]”: the binding result is “binds more weakly”.

“GTAGAGCTTTATATATAAAACTTATAC (double strand) [IE2]”: the binding result is recorded as “binds”.

Turning to “CTGTATATTTATATCTATTTATTATAATGC (double strand) [DE]”, the binding result was “binds”.

On to “AGCTCGCTCTAAAAATAACCCTGGATCC (double strand) [MCK]”, for which the binding result is reported as “binds”.

Take “CACCAGATTATTATTATTTTAGAC (double strand) [IE1]”: the binding result is “binds”.

For the origin of these results see publication PMC3716644.
